Assay results from article PMC6362000.
Results are given in words; binding and its absence hold for the method and conditions named. Binding seen in cells or lysates may run through a third protein. These calls come from enrichment with a bait or labelling near it, and not all partners need be listed.

The chains behind the UniProt entries cited, without tags or fusion partners. Residues count along the entry.
UniProt P31431, residues 19-198: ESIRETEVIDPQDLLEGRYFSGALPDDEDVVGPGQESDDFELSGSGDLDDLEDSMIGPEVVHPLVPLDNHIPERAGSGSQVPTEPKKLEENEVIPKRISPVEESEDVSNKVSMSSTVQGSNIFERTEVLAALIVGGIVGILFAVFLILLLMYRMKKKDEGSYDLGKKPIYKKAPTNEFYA

Assays:
[1] = biological target: GFP-tagged syndecan-4 (WT SDC4) (human) (UniProt P31431); assay: affinity purification with mass spectrometry; whole cell extract of stable GFP-tagged SDC4 transfectant; anti-GFP magnetic beads (µMACS GFP Isolation Kit), on-bead trypsin digestion, LC-MS/MS
[2] = biological target: GFP-tagged WT syndecan-4 (human) (UniProt P31431); assay: affinity purification with mass spectrometry; whole cell extract (2 mg) of the stable transfectant of GFP-tagged SDC4, anti-GFP magnetic beads (µMACS), detergent-free washes, on-bead trypsin digestion, LC-MS/MS

Binder	binding [1]	binding [2]
flotillin 1 (protein, UniProt O75955 1-427) MFFTCGPNEAMVVSGFCRSPPVMVAGGRVFVLPCIQQIQRISLNTLTLNVKSEKVYTRHGVPISVTGIAQVKIQGQNKEMLAAACQMFLGKTEAEIAHIALETLEGHQRAIMAHMTVEEIYKDRQKFSEQVFKVASSDLVNMGISVVSYTLKDIHDDQDYLHSLGKARTAQVQKDARIGEAEAKRDAGIREAKAKQEKVSAQYLSEIEMAKAQRDYELKKAAYDIEVNTRRAQADLAYQLQVAKTKQQIEEQRVQVQVVERAQQVAVQEQEIARREKELEARVRKPAEAERYKLERLAEAEKSQLIMQAEAEAASVRMRGEAEAFAIGARARAEAEQMAKKAEAFQLYQEAAQLDMLLEKLPQVAEEISGPLTSANKITLVSSGSGTMGAAKVTGEVLDILTRLPESVERLTGVSISQVNHKPLRTA	binds	binds
flotillin 2 (protein, UniProt Q14254 1-428) MGNCHTVGPNEALVVSGGCCGSDYKQYVFGGWAWAWWCISDTQRISLEIMTLQPRCEDVETAEGVALTVTGVAQVKIMTEKELLAVACEQFLGKNVQDIKNVVLQTLEGHLRSILGTLTVEQIYQDRDQFAKLVREVAAPDVGRMGIEILSFTIKDVYDKVDYLSSLGKTQTAVVQRDADIGVAEAERDAGIREAECKKEMLDVKFMADTKIADSKRAFELQKSAFSEEVNIKTAEAQLAYELQGAREQQKIRQEEIEIEVVQRKKQIAVEAQEILRTDKELIATVRRPAEAEAHRIQQIAEGEKVKQVLLAQAEAEKIRKIGEAEAAVIEAMGKAEAERMKLKAEAYQKYGDAAKMALVLEALPQIAAKIAAPLTKVDEIVVLSGDNSKVTSEVNRLLAELPASVHALTGVDLSKIPLIKKATGVQV	binds	binds
